Common to all, as to details: yeast three-hybrid, YBZ-1, SC-Leu-His + 0.5 mM 3-AT, 4 days
For experiment [1], the target named is T1, PUM1 PUF domain R4-ALC N971A + H972L + Q975C (Homo sapiens) (UniProt Q14671).
T1 sequence: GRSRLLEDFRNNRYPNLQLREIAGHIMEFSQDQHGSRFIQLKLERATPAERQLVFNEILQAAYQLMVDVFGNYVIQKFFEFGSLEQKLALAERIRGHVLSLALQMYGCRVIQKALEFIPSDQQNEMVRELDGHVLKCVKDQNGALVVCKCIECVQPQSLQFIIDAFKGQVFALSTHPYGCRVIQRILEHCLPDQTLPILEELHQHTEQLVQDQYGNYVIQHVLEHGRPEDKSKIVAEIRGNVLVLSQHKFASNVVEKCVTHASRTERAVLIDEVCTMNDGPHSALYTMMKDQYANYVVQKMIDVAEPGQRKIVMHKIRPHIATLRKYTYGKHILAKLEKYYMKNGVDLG

Experiment [2] addresses T2, PUM1 PUF domain R4-ALS N971A + H972L + Q975S (Homo sapiens) (UniProt Q14671).
T2 sequence: T1 sequence with C148S

For experiment [3], the target named is T3, PUM1 PUF domain R4-GPH N971G + H972P + Q975H (Homo sapiens) (UniProt Q14671).
T3 sequence: T1 sequence with A144G, L145P, C148H

Experiment [4] deals with T4, PUM1 PUF domain R4-SLS N971S + H972L + Q975S (Homo sapiens) (UniProt Q14671).
T4 sequence: T1 sequence with A144S, C148S

The target in experiment [5] is T5, PUM1 PUF domain R4-SQS N971S + H972Q + Q975S (Homo sapiens) (UniProt Q14671).
T5 sequence: T1 sequence with A144S, L145Q, C148S

Experiment [6] has as its target T6, PUM1 PUF domain R4-SWG N971S + H972W + Q975G (Homo sapiens) (UniProt Q14671).
T6 sequence: T1 sequence with A144S, L145W, C148G

Experiment [7] deals with T7, PUM1 PUF domain R4-VGL N971V + H972G + Q975L (Homo sapiens) (UniProt Q14671).
T7 sequence: T1 sequence with A144V, L145G, C148L

Experiment [8] concerns the target T8, PUM1 PUF domain R2-VFQ R3-THE R4-TFR R6-SWD R7-NPG N899V + Y900F + C935T + R936H + Q939E + N971T + H972F + Q975R + N1043S + Y1044W + Q1047D + S1079N + N1080P + E1083G (Homo sapiens) (UniProt Q14671).
T8 sequence: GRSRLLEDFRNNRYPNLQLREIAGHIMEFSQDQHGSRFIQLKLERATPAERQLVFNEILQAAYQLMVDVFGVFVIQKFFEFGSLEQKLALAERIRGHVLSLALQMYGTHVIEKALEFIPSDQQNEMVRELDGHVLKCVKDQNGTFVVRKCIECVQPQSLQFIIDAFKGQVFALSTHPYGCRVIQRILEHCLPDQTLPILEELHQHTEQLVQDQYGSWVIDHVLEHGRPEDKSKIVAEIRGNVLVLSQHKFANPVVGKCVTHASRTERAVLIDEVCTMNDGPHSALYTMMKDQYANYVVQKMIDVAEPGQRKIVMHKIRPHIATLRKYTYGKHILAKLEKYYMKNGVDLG

The target in experiment [9] is T9, PUM1 PUF domain R2-VFQ R6-SWD R7-NPG N899V + Y900F + N1043S + Y1044W + Q1047D + S1079N + N1080P + E1083G (Homo sapiens) (UniProt Q14671).
T9 sequence: T8 sequence with T108C, H109R, E112Q, T144N, F145H, R148Q

The target in experiment [10] is T10, PUM1 PUF domain R3-APV C935A + R936P + Q939V (UniProt Q14671).
T10 sequence: T1 sequence with C108A, R109P, Q112V, A144N, L145H, C148Q

Experiment [11] concerns the target T11, PUM1 PUF domain R3-CPG R936P + Q939G (UniProt Q14671).
T11 sequence: T1 sequence with R109P, Q112G, A144N, L145H, C148Q

In experiment [12] the target is T12, PUM1 PUF domain R3-GPT C935G + R936P + Q939T (UniProt Q14671).
T12 sequence: T1 sequence with C108G, R109P, Q112T, A144N, L145H, C148Q

The target in experiment [13] is T13, PUM1 PUF domain R3-GRF C935G + Q939F (UniProt Q14671).
T13 sequence: T1 sequence with C108G, Q112F, A144N, L145H, C148Q

Experiment [14] deals with T14, PUM1 PUF domain R3-RAD C935R + R936A + Q939D (UniProt Q14671).
T14 sequence: T1 sequence with C108R, R109A, Q112D, A144N, L145H, C148Q

The target of experiment [15] is T15, PUM1 PUF domain R3-RAL C935R + R936A + Q939L (UniProt Q14671).
T15 sequence: T1 sequence with C108R, R109A, Q112L, A144N, L145H, C148Q

Experiment [16] addresses T16, PUM1 PUF domain R3-RQL C935R + R936Q + Q939L (UniProt Q14671).
T16 sequence: T1 sequence with C108R, R109Q, Q112L, A144N, L145H, C148Q

Experiment [17] concerns the target T17, PUM1 PUF domain R3-RQV C935R + R936Q + Q939V (UniProt Q14671).
T17 sequence: T1 sequence with C108R, R109Q, Q112V, A144N, L145H, C148Q

Experiment [18] has as its target T18, PUM1 PUF domain R3-SRW C935S + Q939W (UniProt Q14671).
T18 sequence: T1 sequence with C108S, Q112W, A144N, L145H, C148Q

In experiment [19] the target is T19, PUM1 PUF domain R3-VRK C935V + Q939K (UniProt Q14671).
T19 sequence: T1 sequence with C108V, Q112K, A144N, L145H, C148Q

The target in experiment [20] is T20, PUM1 PUF domain R3-VRL C935V + Q939L (UniProt Q14671).
T20 sequence: T1 sequence with C108V, Q112L, A144N, L145H, C148Q

Positions count from the first letter of the chain named. The list shows a part of the results. For some assays here: At the low end of the ranking the order means little. Where only a bound is given, the exact number is not on record here.

As to “GGCUAGAACUAGUGGAUCCCCCGGCGCCCGGCGGCUCGAGCCCGGGUAAGUGUACAUAGUCUGCAUGCCGCCGGGCGCCAUGCCUGCAGGUCGACUCUAGAAAACAUG”, the binding signal (log2 enrichment (interaction score)) is -3.44 in experiment [1]; -4.38 in experiment [2]; below -4.99 in [3]; -4.85 in [4]; -3.79 in experiment [5]; -4.67 in experiment [6]. Besides, the binding signal (log2 enrichment (interaction score)) in experiment [7] is -2.95.
As to “GGCUAGAACUAGUGGAUCCCCCGGCGCCCGGCGGCUCGAGCCCGGGUAAGUUGACGAAGUCUGCAUGCCGCCGGGCGCCAUGCCUGCAGGUCGACUCUAGAAAACAUG”, the binding signal (log2 enrichment (interaction score)) in experiment [8] was 3.74.
Turning to “GGCUAGAACUAGUGGAUCCCCCGGCGCCCGGCGGCUCGAGCCCGGGUAAGUUGAAAAAGUCUGCAUGCCGCCGGGCGCCAUGCCUGCAGGUCGACUCUAGAAAACAUG”, the binding signal (log2 enrichment (interaction score)) in experiment [9] is -0.79.
For the sequence “GGCUAGAACUAGUGGAUCCCCCGGCGCCCGGCGGCUCGAGCCCGGGUAAGUGUAAGUAGUCUGCAUGCCGCCGGGCGCCAUGCCUGCAGGUCGACUCUAGAAAACAUG”, the binding signal (log2 enrichment (interaction score)) in experiment [10] was -2.69; in experiment [11], -2.16; in [12] it was -3.35; in [13] it was -3.62; in [14] it was -2.76; in [15] it was -2.47. Moreover, the binding signal (log2 enrichment (interaction score)) in [16] is -2.18; in experiment [17] it was -3.34; in experiment [18], -2.1; in experiment [19] it was -2.99; in experiment [20] it was -3.88.

Values taken from publication PMC8384837.
